{"source": "PubChem BioAssay AID504807 – Drosophila RNAi Screening Center, 2011", "aim": "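Knock-downs that turn on a GFP reporter of faulty histone mRNA processing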", "cell system": "Drosophila Dmel-2 cells", "knock-down reagent": "long dsRNA against Drosophila genes, 250 ng dsRNA per well", "duration": "about 5 days (reporter added on day 3, imaged 2 days later)", "measured": "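GFP reporter signal in each well imaged and visually compared with adjacent wells and a U7 snRNA oligo positive control using collages, with hits rated weak, medium or strong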", "hit rule": "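Wells judged by eye for brighter GFP reporter signal, and only dsRNAs whose increase held up on retesting count as hits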", "meaning of the calls": "active = confirmed hit; inactive = not confirmed", "note": "This is not the whole library: the list holds selected reagents. 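All listed dsRNAs looked positive in the first pass but only 20 held up on retesting; weak-to-strong grades are not deposited.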 Names joined by + are all predicted targets of the reagent."}
{"Gene": "CG7841", "amplicon": "DRSC10922", "outcome": "inactive"}
{"Gene": "CG12609", "amplicon": "DRSC19473", "outcome": "inactive"}
{"Gene": "Srpk79D", "amplicon": "DRSC11856", "outcome": "inactive"}
{"Gene": "CG42512 + CG32573", "amplicon": "DRSC19906", "outcome": "inactive"}
{"Gene": "CG31643", "amplicon": "DRSC00906", "outcome": "inactive"}
{"Gene": "CG11598", "amplicon": "DRSC14331", "outcome": "inactive"}
{"Gene": "Lsm11", "amplicon": "DRSC06238", "outcome": "active"}
{"Gene": "Drep3", "amplicon": "DRSC06312", "outcome": "inactive"}
{"Gene": "CG11619", "amplicon": "DRSC09849", "outcome": "inactive"}
{"Gene": "BobA", "amplicon": "DRSC09889", "outcome": "inactive"}
{"Gene": "CG43163", "amplicon": "DRSC10745", "outcome": "inactive"}
{"Gene": "CG5612", "amplicon": "DRSC15844", "outcome": "inactive"}
{"Gene": "yuri", "amplicon": "DRSC01454", "outcome": "inactive"}
{"Gene": "lola", "amplicon": "DRSC05222", "outcome": "active"}
{"Gene": "CG15456", "amplicon": "DRSC20527", "outcome": "inactive"}
{"Gene": "tsl", "amplicon": "DRSC17090", "outcome": "inactive"}
{"Gene": "rush", "amplicon": "DRSC18568", "outcome": "inactive"}
{"Gene": "CG30089", "amplicon": "DRSC06267", "outcome": "inactive"}
{"Gene": "beat-Vb", "amplicon": "DRSC14845", "outcome": "inactive"}
{"Gene": "Ids", "amplicon": "DRSC08222", "outcome": "inactive"}
{"Gene": "CG14450", "amplicon": "DRSC11707", "outcome": "inactive"}
{"Gene": "CG14780", "amplicon": "DRSC18566", "outcome": "inactive"}
{"Gene": "CG11437", "amplicon": "DRSC11659", "outcome": "inactive"}
{"Gene": "CG5267", "amplicon": "DRSC06928", "outcome": "inactive"}
{"Gene": "TwdlH", "amplicon": "DRSC14735", "outcome": "inactive"}
{"Gene": "CG42322", "amplicon": "DRSC15113", "outcome": "inactive"}
{"Gene": "qsm", "amplicon": "DRSC06393", "outcome": "inactive"}
{"Gene": "Cpsf73", "amplicon": "DRSC16291", "outcome": "active"}
{"Gene": "Pop5", "amplicon": "DRSC10074", "outcome": "inactive"}
{"Gene": "Crk", "amplicon": "DRSC17163", "outcome": "inactive"}
{"Gene": "Pss", "amplicon": "DRSC11757", "outcome": "inactive"}
{"Gene": "CG34376", "amplicon": "DRSC14701", "outcome": "inactive"}
{"Gene": "flr", "amplicon": "DRSC09787", "outcome": "inactive"}
{"Gene": "CG13474", "amplicon": "DRSC10018", "outcome": "inactive"}
{"Gene": "kuz", "amplicon": "DRSC03555", "outcome": "inactive"}
{"Gene": "CG2574", "amplicon": "DRSC19862", "outcome": "inactive"}
{"Gene": "CG11110", "amplicon": "DRSC06037", "outcome": "inactive"}
{"Gene": "Orct2", "amplicon": "DRSC14613", "outcome": "inactive"}
{"Gene": "CG15927", "amplicon": "DRSC19742", "outcome": "inactive"}
{"Gene": "CG13712", "amplicon": "DRSC08321", "outcome": "inactive"}
{"Gene": "tinc", "amplicon": "DRSC14798", "outcome": "inactive"}
{"Gene": "CG6707", "amplicon": "DRSC10697", "outcome": "inactive"}
{"Gene": "CG15375", "amplicon": "DRSC18045", "outcome": "inactive"}
{"Gene": "Hmr", "amplicon": "DRSC17740", "outcome": "inactive"}
{"Gene": "CAH6", "amplicon": "DRSC15505", "outcome": "inactive"}
{"Gene": "CG33769", "amplicon": "DRSC11716", "outcome": "inactive"}
{"Gene": "CG18649", "amplicon": "DRSC10334", "outcome": "inactive"}
{"Gene": "CG15450", "amplicon": "DRSC20522", "outcome": "inactive"}
{"Gene": "CG32271", "amplicon": "DRSC08198", "outcome": "inactive"}
{"Gene": "SPoCk", "amplicon": "DRSC11706", "outcome": "inactive"}
{"Gene": "caz", "amplicon": "DRSC20317", "outcome": "inactive"}
{"Gene": "CG33493", "amplicon": "DRSC10642", "outcome": "inactive"}
{"Gene": "trio", "amplicon": "DRSC07928", "outcome": "inactive"}
{"Gene": "CG34347", "amplicon": "DRSC15104", "outcome": "inactive"}
{"Gene": "FeCH", "amplicon": "DRSC16948", "outcome": "inactive"}
{"Gene": "CG9372", "amplicon": "DRSC11068", "outcome": "inactive"}
{"Gene": "bun", "amplicon": "DRSC01253", "outcome": "inactive"}
{"Gene": "CG18367", "amplicon": "DRSC06545", "outcome": "inactive"}
{"Gene": "Cep290", "amplicon": "DRSC08359", "outcome": "inactive"}
{"Gene": "CG5235", "amplicon": "DRSC10494", "outcome": "inactive"}
{"Gene": "rudhira", "amplicon": "DRSC22111", "outcome": "inactive"}
{"Gene": "CG13800 (retired record)", "amplicon": "DRSC08334", "outcome": "inactive"}
{"Gene": "CG5217", "amplicon": "DRSC15740", "outcome": "inactive"}
{"Gene": "CG42269", "amplicon": "DRSC10672", "outcome": "inactive"}

An excerpt from the list above:
{"Gene": "CG13712", "amplicon": "DRSC08321", "outcome": "inactive"}
{"Gene": "tinc", "amplicon": "DRSC14798", "outcome": "inactive"}
{"Gene": "CG6707", "amplicon": "DRSC10697", "outcome": "inactive"}
{"Gene": "CG15375", "amplicon": "DRSC18045", "outcome": "inactive"}
{"Gene": "Hmr", "amplicon": "DRSC17740", "outcome": "inactive"}
